Results are given in words; binding and its absence hold for the method and conditions named. Binding seen in cells or lysates may run through a third protein. Some results given as binding are weak or reduced against the parent protein; the word gives no strength. Tags and fused reporters may be left off the sequences shown.
Target: T1, SMOC1-myc-DDK-his (human) (UniProt Q9H4F8)
T1 sequence: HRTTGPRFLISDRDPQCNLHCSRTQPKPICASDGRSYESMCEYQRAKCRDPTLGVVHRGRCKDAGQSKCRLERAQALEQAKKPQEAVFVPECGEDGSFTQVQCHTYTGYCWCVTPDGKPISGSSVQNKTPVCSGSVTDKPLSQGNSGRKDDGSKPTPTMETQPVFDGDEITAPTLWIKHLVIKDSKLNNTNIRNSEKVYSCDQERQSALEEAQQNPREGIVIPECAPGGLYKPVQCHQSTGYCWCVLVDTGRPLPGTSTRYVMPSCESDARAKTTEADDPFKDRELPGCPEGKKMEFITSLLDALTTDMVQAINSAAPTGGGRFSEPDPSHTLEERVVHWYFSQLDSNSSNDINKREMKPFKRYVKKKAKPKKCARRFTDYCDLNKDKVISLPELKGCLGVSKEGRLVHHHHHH
Test: co-immunoprecipitation from COS cell culture medium with the anti-tenascin-C antibody, western blot probed for SMOC1

Sequences of proteins named here, by UniProt entry; tags and fusion partners are left off. Residues count along the entry.
UniProt P24821, residues 23-2201: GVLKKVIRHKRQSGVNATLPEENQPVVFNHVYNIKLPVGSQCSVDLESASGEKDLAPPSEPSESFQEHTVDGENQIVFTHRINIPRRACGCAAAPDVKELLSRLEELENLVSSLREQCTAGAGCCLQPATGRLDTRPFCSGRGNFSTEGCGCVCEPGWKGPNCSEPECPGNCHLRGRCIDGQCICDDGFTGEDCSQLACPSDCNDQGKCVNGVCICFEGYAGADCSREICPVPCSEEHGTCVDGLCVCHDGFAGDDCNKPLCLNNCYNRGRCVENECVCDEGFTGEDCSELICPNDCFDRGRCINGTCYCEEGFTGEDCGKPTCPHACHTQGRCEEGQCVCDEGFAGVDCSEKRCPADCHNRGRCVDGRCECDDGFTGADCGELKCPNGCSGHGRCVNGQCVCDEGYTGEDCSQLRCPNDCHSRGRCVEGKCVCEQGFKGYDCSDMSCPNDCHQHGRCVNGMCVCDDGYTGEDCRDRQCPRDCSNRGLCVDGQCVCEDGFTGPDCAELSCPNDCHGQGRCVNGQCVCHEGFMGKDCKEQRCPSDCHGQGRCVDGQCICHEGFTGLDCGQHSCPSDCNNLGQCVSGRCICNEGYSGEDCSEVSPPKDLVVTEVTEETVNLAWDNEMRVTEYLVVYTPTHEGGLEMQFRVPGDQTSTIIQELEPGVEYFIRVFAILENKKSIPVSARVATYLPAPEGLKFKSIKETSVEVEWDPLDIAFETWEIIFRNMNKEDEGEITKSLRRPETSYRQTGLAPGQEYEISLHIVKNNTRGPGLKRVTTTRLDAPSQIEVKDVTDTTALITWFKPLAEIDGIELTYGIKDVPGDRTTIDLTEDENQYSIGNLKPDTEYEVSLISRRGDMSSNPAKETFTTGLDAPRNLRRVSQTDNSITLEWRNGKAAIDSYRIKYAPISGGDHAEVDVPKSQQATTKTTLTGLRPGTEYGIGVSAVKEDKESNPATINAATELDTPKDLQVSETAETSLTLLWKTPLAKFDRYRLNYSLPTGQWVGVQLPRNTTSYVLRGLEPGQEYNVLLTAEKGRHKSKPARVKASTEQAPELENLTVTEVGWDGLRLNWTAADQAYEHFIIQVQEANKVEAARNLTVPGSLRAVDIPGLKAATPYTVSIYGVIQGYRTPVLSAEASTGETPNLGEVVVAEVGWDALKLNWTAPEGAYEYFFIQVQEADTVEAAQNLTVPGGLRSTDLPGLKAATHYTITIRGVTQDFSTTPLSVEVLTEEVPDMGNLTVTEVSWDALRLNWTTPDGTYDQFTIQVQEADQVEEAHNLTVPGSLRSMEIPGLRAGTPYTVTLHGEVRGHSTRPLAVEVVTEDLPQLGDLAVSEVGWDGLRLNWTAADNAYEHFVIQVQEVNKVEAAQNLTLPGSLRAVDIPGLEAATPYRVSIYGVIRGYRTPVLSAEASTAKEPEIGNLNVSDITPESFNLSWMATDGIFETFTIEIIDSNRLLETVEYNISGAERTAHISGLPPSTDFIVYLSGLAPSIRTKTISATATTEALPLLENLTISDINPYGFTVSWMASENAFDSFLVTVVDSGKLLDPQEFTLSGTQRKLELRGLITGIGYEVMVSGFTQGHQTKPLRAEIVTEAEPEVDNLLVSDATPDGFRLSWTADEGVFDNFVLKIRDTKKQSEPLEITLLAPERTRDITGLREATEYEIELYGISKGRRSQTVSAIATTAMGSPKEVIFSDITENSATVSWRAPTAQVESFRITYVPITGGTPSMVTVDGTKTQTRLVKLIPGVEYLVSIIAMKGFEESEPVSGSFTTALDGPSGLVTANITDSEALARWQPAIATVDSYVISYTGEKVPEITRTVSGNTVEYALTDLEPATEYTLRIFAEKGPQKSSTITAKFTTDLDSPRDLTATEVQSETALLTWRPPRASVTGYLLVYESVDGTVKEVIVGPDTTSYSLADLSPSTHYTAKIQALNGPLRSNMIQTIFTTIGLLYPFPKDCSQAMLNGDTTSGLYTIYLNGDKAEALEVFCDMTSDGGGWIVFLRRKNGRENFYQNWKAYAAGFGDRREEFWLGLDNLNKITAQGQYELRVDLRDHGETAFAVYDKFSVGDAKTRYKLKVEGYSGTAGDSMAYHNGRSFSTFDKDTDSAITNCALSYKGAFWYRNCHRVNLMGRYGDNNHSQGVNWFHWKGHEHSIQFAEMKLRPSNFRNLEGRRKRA

binding: binds
Substance: His-tagged human tenascin-C (from UniProt P24821 23-2201)
